Experimental data as given in PubChem BioAssay AID1347423 (Functional Genomics Laboratory (NCATS/FGL), 2020).
Screen size: about 52,000 sequences; about 210 (0.4%) were called active.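 How the source made its calls: active means gene whose silencing raises cell survival under the drug, median off-target-corrected z-score across its silencing RNAs 2 or more; inactive means the rest.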 The list shows a part of the results.

test: Resistance to Poly (ADP-Ribose) Polymerase inhibitor: Gene Identification via Genome-wide siRNA Screen; conditions: mouse BRCA2 R2336H ES cells, olaparib, CellTiter-Glo viability; hits give high values
Procedure, shortened: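 Genome-wide siRNA screen (3 siRNAs/gene, 20 nM) in mouse ES cells carrying hypomorphic BRCA2 R2336H; olaparib 500 nM added 48 h post-transfection, CellTiter-Glo viability 72 h later. Normalized to plate-median negative control; MAD z-scores, gene median, seed-adjusted.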

Row | Sequence | z-score
1 | CCAGUUGUGUGCAGUACAGTT against 1700019G17Rik | inactive: 0.232
2 | CCUGUUCUCUCACCAUCAUTT against Olfr1026 | inactive: -1.6
3 | GGGCACCACAGAAAGGAAUTT against Olfr376 | inactive: -0.844
4 | GCUGUUGUGUGAGGUAACCTT against Lag3 | inactive: -0.206
5 | GCCGAUGAUACCAAACCGATT against 3230401D17Rik | inactive: 2.44
6 | GGGUCAUCCUCUAUGCAGUTT against Taar6 | inactive: 1.9
7 | CCGUCACUAUACCCAAGUUTT against Olfr802 | inactive: -3.11
8 | CGUUCCAAAUUAGACUUGUTT against Gm631 | inactive: 1.38
9 | GCAACGUAACAUUACUAUCTT against Lgr8 | inactive: 1.89
10 | GGUGUUUCCGUUGUAAAAATT against Tuba6 | inactive: -0.219
11 | GAUAAUUGGUUUACAGACUTT against V1rc24 | inactive: 0.959
12 | CCUGCUCAAACUUUUGUGGTT against Gm1382 | inactive: 0.598
13 | GAAUCUUAGGAAGAUGACATT against 2310040M23Rik | inactive: -0.934
14 | GGACUUGGAAUAUGGACCATT against Mds1 | inactive: 0.1
15 | GGUCCAGAUCAGUUGACAGTT against Sfrs5 | inactive: -2.84
16 | GGGAACAGAAGUUGUGAGATT against Gulp1 | inactive: -0.203
17 | GGAUCUGUACAAGACUUAUTT against Olfr800 | inactive: -0.945
18 | GGGUUCUCUUGAGUUACAGTT against 6330516O17Rik | inactive: -1.13
19 | GGUCUUGGACUUGUAUUACTT against Pcdha4 | inactive: 0.336
20 | GCCCAUUAUUUUCGGACUGTT against Olfr845 | inactive: -2.22
21 | GGGUGCAGUGGAGUCUAUUTT against Smc1l1 | inactive: -2.68
22 | CCGAUAAUGCUUUCUUUGGTT against Ppp1cc | inactive: 0.506
23 | GGUGGCUGUACUUUUGAUGTT against Ptprk | inactive: 0.515
24 | GCUACAGUAGUAAGACUAATT against Usp53 | inactive: -1.83
25 | CGGAAAUCGGCAAGCUUCUTT against Dtymk | inactive: 1.51
26 | GGAGAUAAUUGGUUUACAGTT against V1rc24 | inactive: 1.29

Row | Sequence | z-score
27 | CCGCGUAGUGGAUACAUUUTT against Ap3m2 | inactive: -0.882
28 | GGAAGUACUCUGAAGAUUCTT against Jarid1b | inactive: 0.476
29 | GGGCAUGAAAGAAUUCUUATT against D130040H23Rik | inactive: -0.304
30 | GGCCAUGAAGGAAUAUGAATT against Cdc37 | inactive: 0.231
31 | GGGCAUUUGCUGUAAAUUATT against Hace1 | inactive: 0.61
32 | GGCAACAAUGAGAGAAGAATT against Scye1 | inactive: -1.25
33 | GGAUCAUGGUCAUCACUGUTT against 6030458H05 | inactive: 0.0686
34 | GGAAGAGGAUGAGUUAGGGTT against Ppp1r1b | inactive: 0.393
35 | GCUGUUGAAAGCCUUCUGGTT against 2310040M23Rik | inactive: 0.963
36 | GGGUGUUCCAGAAGUAUCUTT against Lars2 | inactive: -0.99
37 | GCUUUUAGAAUAAAGCUGATT against Fgl2 | inactive: -0.121
38 | GGAAAGAAAAGCCUUAGAATT against A530083I02Rik | inactive: -0.538
39 | GGAAUCUCAGCCUUGAAAGTT against 0710008K08Rik | inactive: 0.111
40 | CCACUGAAGGAAGUUCGCUTT against 2600011E07Rik | inactive: -1.18
41 | UCCUGGAGAUUUGACCGAGTT against 1700011J10Rik | inactive: 0.173
42 | GGAAAACAAGAAAGAUGAATT against Rnut1 | inactive: -0.538
43 | UCAGGAUACAAUCAUCGCCTT against Olfr101 | inactive: -0.636
44 | GGCAAUGAGACAAUUGUCATT against Cpe | inactive: -0.483
45 | GGUACCUGAGGUAGAAAAGTT against Pnma3 | inactive: -0.877
46 | CCGCUCUUUUACAGCUGGATT against 2410005K20Rik | inactive: -0.827
47 | CCACAUUUGGAACCUACGATT against 1200008A14Rik | inactive: 0.645
48 | GGUUCGAGUUUCAUACUAUTT against Padi4 | inactive: -0.128
49 | GGAGAUCACUAUGUUCUGATT against Ivd | inactive: -0.0574
50 | GGAGACAGUUCAGAAGUGGTT against Glp2r | inactive: 1.48
51 | CGAUAUUUAUCAUGAGUGCTT against Nalp9c | inactive: 0.724
52 | GGCAAUGAUUAAAGGAAAATT against Olfr1436 | inactive: -0.106

Row | Sequence | z-score
53 | CCUAAAACUCCUCUAUCUUTT against 4933403H06Rik | inactive: 0.255
54 | GGGUUUACUUCUCAGACAGTT against Gtl3 | inactive: -0.908
55 | CCAUUAUUCUAGUGUCCUATT against Olfr1368 | inactive: 0.449
56 | GCAGAUGCUCUCCUUAAAATT against Siglec10 | inactive: 0.233
57 | CCCACUUUAACCCUUUAUUTT against E130309F12Rik | inactive: -0.45
58 | GGAGACGACAAAAAUCAGATT against Mrpl32 | inactive: 0.124
59 | GGCUGAGUAAUGAACCUCUTT against Gmnn | inactive: -1.67
60 | GCUUGGAAACUCGUCUAAATT against Map1lc3b | inactive: -0.718
61 | UACACUAGUGCUGUUUACATT against Olfr192 | inactive: -1.11
62 | GUUCUGAGAGGAAAAGACUTT against Olfr559 | inactive: 1.19
63 | GCAUUUUCUGCUCGAUAUUTT against Skil | inactive: -0.0796
64 | GGAUCCUGGAUAAUCUGGGTT against Plscr1 | inactive: 0.301
65 | GGUGACCAGCAAGUCAUGCTT against Chrdl1 | inactive: -0.419
66 | GCGUGGUAGAUGCUAUUAATT against 5730466C23Rik | inactive: -1.17
67 | GGAAAGUCUACAUGUAUUATT against Enpp6 | inactive: 0.468
68 | GGUGAAAUUUGUCAUGGUCTT against 1810017G16Rik | inactive: 0.403
69 | GUGGACUUCUUCCUGUUGGTT against Tmem15 | inactive: -0.00879
70 | GGGUUUUAGAAUGAAAUACTT against 0610009E20Rik | inactive: 0.629
71 | GCAAAAGAGUUGGAGUUAGTT against Pcnt2 | inactive: 0.137
72 | CCACUGAAAGGAACAACAATT against Col6a2 | inactive: 0.553
73 | GGUGAUGCUAGUGAUUGAUTT against Ngb | inactive: 1.88
74 | CCCUCGACUUCUUACUGUCTT against D10Ertd802e | inactive: 0.00176
75 | GCUGUCACUUCAAUAACUGTT against BC024582 | inactive: -0.786
76 | GCAGUGGUAACAGUGGCCATT against Reg3g | inactive: 2.08
77 | GCUAAACAUAAAAAUCGACTT against 4931406P16Rik | inactive: 1.4
78 | GGCAAUAAGCACCUGGGUATT against Serpini2 | inactive: -0.415

Reformatted: entries from further up.
Row	Sequence	z-score
51	CGAUAUUUAUCAUGAGUGCTT against Nalp9c	inactive: 0.724
52	GGCAAUGAUUAAAGGAAAATT against Olfr1436	inactive: -0.106
53	CCUAAAACUCCUCUAUCUUTT against 4933403H06Rik	inactive: 0.255
54	GGGUUUACUUCUCAGACAGTT against Gtl3	inactive: -0.908
55	CCAUUAUUCUAGUGUCCUATT against Olfr1368	inactive: 0.449
56	GCAGAUGCUCUCCUUAAAATT against Siglec10	inactive: 0.233
57	CCCACUUUAACCCUUUAUUTT against E130309F12Rik	inactive: -0.45
58	GGAGACGACAAAAAUCAGATT against Mrpl32	inactive: 0.124
59	GGCUGAGUAAUGAACCUCUTT against Gmnn	inactive: -1.67
60	GCUUGGAAACUCGUCUAAATT against Map1lc3b	inactive: -0.718
61	UACACUAGUGCUGUUUACATT against Olfr192	inactive: -1.11
62	GUUCUGAGAGGAAAAGACUTT against Olfr559	inactive: 1.19
63	GCAUUUUCUGCUCGAUAUUTT against Skil	inactive: -0.0796
64	GGAUCCUGGAUAAUCUGGGTT against Plscr1	inactive: 0.301
65	GGUGACCAGCAAGUCAUGCTT against Chrdl1	inactive: -0.419
66	GCGUGGUAGAUGCUAUUAATT against 5730466C23Rik	inactive: -1.17
67	GGAAAGUCUACAUGUAUUATT against Enpp6	inactive: 0.468
68	GGUGAAAUUUGUCAUGGUCTT against 1810017G16Rik	inactive: 0.403
69	GUGGACUUCUUCCUGUUGGTT against Tmem15	inactive: -0.00879
70	GGGUUUUAGAAUGAAAUACTT against 0610009E20Rik	inactive: 0.629
71	GCAAAAGAGUUGGAGUUAGTT against Pcnt2	inactive: 0.137
72	CCACUGAAAGGAACAACAATT against Col6a2	inactive: 0.553
73	GGUGAUGCUAGUGAUUGAUTT against Ngb	inactive: 1.88
74	CCCUCGACUUCUUACUGUCTT against D10Ertd802e	inactive: 0.00176
75	GCUGUCACUUCAAUAACUGTT against BC024582	inactive: -0.786
76	GCAGUGGUAACAGUGGCCATT against Reg3g	inactive: 2.08

Exported as labelled records: part of the list above
CCUAAAACUCCUCUAUCUUTT against 4933403H06Rik
  z-score: inactive: 0.255
GGGUUUACUUCUCAGACAGTT against Gtl3
  z-score: inactive: -0.908

(next part)

Row | Sequence | z-score
79 | GGCUUAUCUCUAAAUCCAATT against Afp | inactive: 0.0478
80 | CCAGACUAGAUAUCAUAUCTT against Nup54 | inactive: 0.227
81 | GGAUUUCAUCAAAGGUCUUTT against Kcnip4 | inactive: -0.873
82 | GGCUUUCUUCAGUUUUGUCTT against Slc33a1 | inactive: -0.779
83 | GGUUCUCAAGGAAUUGCCCTT against R3hdm | inactive: 0.658
84 | GGCAGGAGAAAGGCCUUUUTT against Olfr535 | inactive: -1.3
85 | GGGAACCAGCCAGUUCAAGTT against Ap1g2 | inactive: 0.277
86 | GGUUGAUGUCAGUGGAAGATT against Dab2ip | inactive: 0.0174
87 | GGAAUUUGUAUGGUCUCUGTT against D530005L17Rik | inactive: 0.415
88 | CCUGGAUAUGCGCAAGUGUTT against Oxt | inactive: -1.48
89 | GCAUGGGAGCAGUGUGAACTT against 4930542G03Rik | inactive: -0.539
90 | GGAGUGAAAAAAAUUCACATT against Chrna1 | inactive: 1.03
91 | GGAACACAAGAUUUUCCUGTT against Ppp2r5c | inactive: 2.15
92 | GGCUUUGGCUCCAUUAUUCTT against 3300001M20Rik | inactive: -0.177
93 | GCAGAUCGAGUGAGCUCUATT against Ccr2 | inactive: -2.31
94 | GGAGAUCAUCCACUUCCAGTT against Dbh | inactive: -1.33
95 | CCUUCCUCCUUUAUGAGCATT against Tsga10 | inactive: -1.07
96 | GGUCAAACUUCAAUAGACATT against Zfp535 | inactive: 0.947
97 | GGAAGUGGUAAUUUCAGUATT against Ssr1 | inactive: -0.425
98 | GGUUUCAAUUCUGUGUUCATT against Unc5b | inactive: -0.533
99 | CCACGUGAAGGAGAGAUGATT against 2700078K21Rik | inactive: -0.357
100 | CGUGGAUGAGAACUAACCUTT against Rpl31 | inactive: -2.78
101 | GGAAUUGACUUUAAGACAATT against Boll | inactive: -0.297
102 | GGGCAAAAUAUAGCAAUGATT against V1rf5 | inactive: 0.0734
103 | CCUGCAUGCCUAUGUGCGUTT against Ace | inactive: 0.0353
